According to publication doi:10.1101/2021.04.20.440571:
Results are given in words; binding and its absence hold for the method and conditions named. Binding seen in cells or lysates may run through a third protein. Some binding calls cover weakened binding; strength is not graded here.

Target: Nesprin-1 (mouse (endogenous in IIA1.6)) (UniProt Q6ZWR6)
Assay: co-IP

B1: Sun-1 (protein, UniProt Q9D666 1-913)
chain: MDFSRLHTYTPPQCVPENTGYTYALSSSYSSDALDFETEHKLEPVFDSPRMSRRSLRLVTTASYSSGDSQAIDSHISTSRATPAKGRETRTVKQRRSASKPAFSINHLSGKGLSSSTSHDSSCSLRSATVLRHPVLDESLIREQTKVDHFWGLDDDGDLKGGNKAATQGNGELAAEVASSNGYTCRDCRMLSARTDALTAHSAIHGTTSRVYSRDRTLKPRGVSFYLDRTLWLAKSTSSSFASFIVQLFQVVLMKLNFETYKLKGYESRAYESQSYETKSHESEAHLGHCGRMTAGELSRVDGESLCDDCKGKKHLEIHTATHSQLPQPHRVAGAMGRLCIYTGDLLVQALRRTRAAGWSVAEAVWSVLWLAVSAPGKAASGTFWWLGSGWYQFVTLISWLNVFLLTRCLRNICKVFVLLLPLLLLLGAGVSLWGQGNFFSLLPVLNWTAMQPTQRVDDSKGMHRPGPLPPSPPPKVDHKASQWPQESDMGQKVASLSAQCHNHDERLAELTVLLQKLQIRVDQVDDGREGLSLWVKNVVGQHLQEMGTIEPPDAKTDFMTFHHDHEVRLSNLEDVLRKLTEKSEAIQKELEETKLKAGSRDEEQPLLDRVQHLELELNLLKSQLSDWQHLKTSCEQAGARIQETVQLMFSEDQQGGSLEWLLEKLSSRFVSKDELQVLLHDLELKLLQNITHHITVTGQAPTSEAIVSAVNQAGISGITEAQAHIIVNNALKLYSQDKTGMVDFALESGGGSILSTRCSETYETKTALLSLFGVPLWYFSQSPRVVIQPDIYPGNCWAFKGSQGYLVVRLSMKIYPTTFTMEHIPKTLSPTGNISSAPKDFAVYGLETEYQEEGQPLGRFTYDQEGDSLQMFHTLERPDQAFQIVELRVLSNWGHPEYTCLYRFRVHGEPIQ
Q: How did the binding turn out when B1 was run?
A: The binding was “binds”.

B2: Sun-2 (protein, UniProt Q8BJS4 1-731)
chain: MSRRSQRLTRYSQDDNDGGSSSSGASSVAGSQGTVFKDSPLRTLKRKSSNMKHLSPAPQLGPSSDSHTSYYSESVVRESYIGSPRAVSLARSALLDDHLHSEPYWSGDLRGRRRRGTGGSESSKANGLTAESKASEDFFGSSSGYSSEDDLAGYTDSDQHSSGSRLRSAASRAGSFVWTLVTFPGRLFGLLYWWIGTTWYRLTTAASLLDVFVLTRSRHFSLNLKSFLWFLLLLLLLTGLTYGAWHFYPLGLQTLQPAVVSWWAAKESRKQPEVWESRDASQHFQAEQRVLSRVHSLERRLEALAADFSSNWQKEAIRLERLELRQGAAGHGGGSSLSHEDALSLLEGLVSRREATLKEDLRRDTVAHIQEELATLRAEHHQDSEDLFKKIVQASQESEARVQQLKTEWKSMTQEAFQESSVKELGRLEAQLASLRQELAALTLKQNSVADEVGLLPQKIQAARADVESQFPDWIRQFLLGDRGARSGLLQRDEMHAQLQELENKILTKMAEMQGKSAREAAASLGQILQKEGIVGVTEEQVHRIVKQALQRYSEDRIGMVDYALESGGASVISTRCSETYETKTALLSLFGIPLWYHSQSPRVILQPDVHPGNCWAFQGPQGFAVVRLSARIRPTAVTLEHVPKALSPNSTISSAPKDFAIFGFDEDLQQEGTLLGTFAYDQDGEPIQTFYFQASKMATYQVVELRILTNWGHPEYTCIYRFRVHGEPAH
Q: B2 was tested. Which binding did it give?
A: Its binding is “no binding”.
